Experiment in all cases: ELISA; 100 ng rFzd protein adsorbed on MaxiSorp plate in PBS overnight at 4°C; 500 ng rTRP120 in PBS added 1 h at room temperature; detected with α-TRP120-I1 and alkaline phosphatase-conjugated secondary antibody; A650, blank-subtracted; both purified
For assay [1], the target named is recombinant Fzd5 extracellular domain (rFzd5-ECD) (UniProt Q13467).
Assay [2] deals with recombinant Fzd4 extracellular domain (rFzd4-ECD) (UniProt Q9ULV1).
The target of assay [3] is recombinant Fzd3 extracellular domain (rFzd3-ECD) (UniProt Q9NPG1).
The target in assay [4] is recombinant Fzd9 extracellular domain (rFzd9-ECD) (UniProt O00144).
In assay [5] the target is recombinant Fzd10 extracellular domain (rFzd10-ECD) (UniProt Q9ULW2).
The target of assay [6] is recombinant Fzd6 extracellular domain (rFzd6-ECD) (UniProt O60353).

Protein sequences, listed by entry. Tags and fused reporters are not part of them. Lines headed by an entry give the natural chain unless they say otherwise; changes in a name come on top.
UniProt Q13467: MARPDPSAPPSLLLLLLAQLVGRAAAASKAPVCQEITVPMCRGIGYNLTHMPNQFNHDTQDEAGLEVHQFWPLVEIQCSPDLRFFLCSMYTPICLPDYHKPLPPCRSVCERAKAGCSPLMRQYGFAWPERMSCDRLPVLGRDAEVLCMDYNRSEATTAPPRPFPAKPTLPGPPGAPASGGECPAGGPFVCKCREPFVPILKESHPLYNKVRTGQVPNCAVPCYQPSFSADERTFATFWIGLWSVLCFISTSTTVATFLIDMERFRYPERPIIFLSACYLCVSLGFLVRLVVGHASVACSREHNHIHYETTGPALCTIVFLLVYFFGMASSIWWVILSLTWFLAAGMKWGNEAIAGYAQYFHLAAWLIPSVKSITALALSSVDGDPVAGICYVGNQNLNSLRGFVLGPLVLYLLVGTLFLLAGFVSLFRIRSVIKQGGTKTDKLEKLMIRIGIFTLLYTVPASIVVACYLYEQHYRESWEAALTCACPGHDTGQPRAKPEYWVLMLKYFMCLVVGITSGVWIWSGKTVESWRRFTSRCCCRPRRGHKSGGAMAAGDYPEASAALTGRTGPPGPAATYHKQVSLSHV
UniProt Q9ULV1: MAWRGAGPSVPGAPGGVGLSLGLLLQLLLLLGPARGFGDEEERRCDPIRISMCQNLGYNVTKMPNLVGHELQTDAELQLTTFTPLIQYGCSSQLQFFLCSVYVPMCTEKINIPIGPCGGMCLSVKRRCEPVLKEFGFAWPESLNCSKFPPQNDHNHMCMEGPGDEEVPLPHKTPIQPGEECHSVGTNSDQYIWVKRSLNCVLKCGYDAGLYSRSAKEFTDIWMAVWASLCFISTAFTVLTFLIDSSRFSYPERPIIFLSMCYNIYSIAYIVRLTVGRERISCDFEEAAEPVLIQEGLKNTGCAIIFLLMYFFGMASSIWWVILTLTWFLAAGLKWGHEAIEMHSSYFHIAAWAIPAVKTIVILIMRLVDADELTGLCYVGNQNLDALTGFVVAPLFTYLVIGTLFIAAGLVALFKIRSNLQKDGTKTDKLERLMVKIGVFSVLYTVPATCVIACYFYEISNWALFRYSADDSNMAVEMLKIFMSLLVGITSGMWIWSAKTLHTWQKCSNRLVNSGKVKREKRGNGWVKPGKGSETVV
UniProt Q9NPG1: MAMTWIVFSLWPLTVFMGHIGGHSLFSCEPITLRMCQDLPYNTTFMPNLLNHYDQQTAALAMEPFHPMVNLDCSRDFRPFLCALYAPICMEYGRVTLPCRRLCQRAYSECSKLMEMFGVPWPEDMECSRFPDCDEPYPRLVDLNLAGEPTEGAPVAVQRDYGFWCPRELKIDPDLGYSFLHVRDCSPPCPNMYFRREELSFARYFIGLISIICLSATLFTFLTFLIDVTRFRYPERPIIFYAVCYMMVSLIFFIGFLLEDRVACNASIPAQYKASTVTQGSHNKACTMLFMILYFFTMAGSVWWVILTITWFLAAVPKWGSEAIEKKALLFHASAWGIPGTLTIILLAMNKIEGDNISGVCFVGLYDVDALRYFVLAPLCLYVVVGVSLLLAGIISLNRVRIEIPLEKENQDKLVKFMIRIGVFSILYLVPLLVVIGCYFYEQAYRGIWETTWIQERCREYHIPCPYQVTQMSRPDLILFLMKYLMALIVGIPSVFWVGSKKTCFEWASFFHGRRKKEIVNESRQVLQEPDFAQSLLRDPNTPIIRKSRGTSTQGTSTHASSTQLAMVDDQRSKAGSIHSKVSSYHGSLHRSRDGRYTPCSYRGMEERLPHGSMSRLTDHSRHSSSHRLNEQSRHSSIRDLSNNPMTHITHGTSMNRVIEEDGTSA
UniProt O00144: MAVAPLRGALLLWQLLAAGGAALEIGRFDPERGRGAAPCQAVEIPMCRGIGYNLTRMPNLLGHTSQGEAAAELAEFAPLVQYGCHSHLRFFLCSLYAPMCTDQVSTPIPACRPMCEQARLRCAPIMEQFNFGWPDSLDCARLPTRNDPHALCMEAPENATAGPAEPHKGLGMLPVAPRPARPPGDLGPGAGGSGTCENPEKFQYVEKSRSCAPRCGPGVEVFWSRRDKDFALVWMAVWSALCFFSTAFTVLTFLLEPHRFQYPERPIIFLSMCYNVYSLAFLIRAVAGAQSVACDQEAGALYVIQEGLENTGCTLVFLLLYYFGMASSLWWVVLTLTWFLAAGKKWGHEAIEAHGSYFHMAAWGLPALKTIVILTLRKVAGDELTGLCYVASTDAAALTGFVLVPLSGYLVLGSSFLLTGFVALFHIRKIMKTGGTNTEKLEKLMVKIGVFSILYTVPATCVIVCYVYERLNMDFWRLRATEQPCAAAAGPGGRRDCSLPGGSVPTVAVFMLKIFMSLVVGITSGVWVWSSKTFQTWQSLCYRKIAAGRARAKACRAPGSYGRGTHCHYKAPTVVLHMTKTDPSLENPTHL
UniProt Q9ULW2: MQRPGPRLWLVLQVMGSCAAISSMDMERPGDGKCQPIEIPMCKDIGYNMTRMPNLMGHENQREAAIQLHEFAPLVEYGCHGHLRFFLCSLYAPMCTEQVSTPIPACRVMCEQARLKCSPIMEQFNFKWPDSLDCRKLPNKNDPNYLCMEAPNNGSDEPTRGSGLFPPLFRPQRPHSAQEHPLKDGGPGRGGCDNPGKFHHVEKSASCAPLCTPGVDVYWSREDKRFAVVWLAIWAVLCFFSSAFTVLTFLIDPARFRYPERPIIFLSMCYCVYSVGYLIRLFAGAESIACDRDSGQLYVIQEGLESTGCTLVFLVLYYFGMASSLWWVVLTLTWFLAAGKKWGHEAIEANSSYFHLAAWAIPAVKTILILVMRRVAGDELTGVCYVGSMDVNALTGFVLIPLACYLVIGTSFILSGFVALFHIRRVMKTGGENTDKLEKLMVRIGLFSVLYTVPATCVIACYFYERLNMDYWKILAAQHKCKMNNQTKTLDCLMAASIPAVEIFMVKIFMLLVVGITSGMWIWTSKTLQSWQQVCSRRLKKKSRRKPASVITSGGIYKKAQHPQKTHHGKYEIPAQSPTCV
UniProt O60353: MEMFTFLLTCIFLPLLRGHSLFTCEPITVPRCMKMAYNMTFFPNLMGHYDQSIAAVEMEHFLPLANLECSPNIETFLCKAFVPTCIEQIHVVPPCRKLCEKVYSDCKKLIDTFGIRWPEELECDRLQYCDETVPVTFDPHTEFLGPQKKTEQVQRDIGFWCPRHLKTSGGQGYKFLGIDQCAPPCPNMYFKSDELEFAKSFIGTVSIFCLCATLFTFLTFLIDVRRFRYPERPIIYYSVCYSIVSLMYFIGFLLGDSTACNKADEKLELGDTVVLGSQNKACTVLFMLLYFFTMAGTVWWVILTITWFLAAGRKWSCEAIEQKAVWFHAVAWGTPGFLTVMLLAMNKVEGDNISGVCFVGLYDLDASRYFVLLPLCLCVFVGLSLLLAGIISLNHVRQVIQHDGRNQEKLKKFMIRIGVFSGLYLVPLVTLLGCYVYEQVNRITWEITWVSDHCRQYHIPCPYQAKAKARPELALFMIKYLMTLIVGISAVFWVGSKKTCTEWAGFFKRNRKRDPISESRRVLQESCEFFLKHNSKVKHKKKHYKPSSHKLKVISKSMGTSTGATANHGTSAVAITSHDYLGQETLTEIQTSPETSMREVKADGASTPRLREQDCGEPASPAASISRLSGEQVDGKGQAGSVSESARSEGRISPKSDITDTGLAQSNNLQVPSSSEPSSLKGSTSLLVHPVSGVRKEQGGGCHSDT
UniProt Q2GI62: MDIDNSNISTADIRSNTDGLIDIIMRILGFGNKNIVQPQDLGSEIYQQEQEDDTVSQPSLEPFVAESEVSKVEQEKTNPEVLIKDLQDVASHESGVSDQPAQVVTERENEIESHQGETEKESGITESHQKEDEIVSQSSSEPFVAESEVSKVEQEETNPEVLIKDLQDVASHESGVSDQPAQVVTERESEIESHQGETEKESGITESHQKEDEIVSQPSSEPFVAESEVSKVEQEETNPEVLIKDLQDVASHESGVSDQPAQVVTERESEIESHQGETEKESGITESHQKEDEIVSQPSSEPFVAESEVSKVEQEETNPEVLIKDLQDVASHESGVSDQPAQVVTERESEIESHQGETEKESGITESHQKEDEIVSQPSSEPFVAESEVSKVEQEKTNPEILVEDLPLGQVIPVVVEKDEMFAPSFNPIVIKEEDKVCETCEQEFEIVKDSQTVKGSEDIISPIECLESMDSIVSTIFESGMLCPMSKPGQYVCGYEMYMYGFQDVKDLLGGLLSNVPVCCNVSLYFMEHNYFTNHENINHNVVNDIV

These are yes or no findings as the source states them, for the method shown. A result given as binding can be weak or reduced; the word gives no strength.

Regarding “recombinant, full-length TRP120 (rTRP120-FL) (from UniProt Q2GI62 1-548)”, the binding result in assay [1] is “binds”; in assay [2] it was “binds”; in assay [3] it was “binds weakly”; in assay [4], “binds”; in assay [5], “binds weakly”; in assay [6], “binds weakly”.

These data come from article PMC8546699, “Ehrlichia chaffeensis TRP120 Is a Wnt Ligand Mimetic That Interacts with Wnt Receptors and Contains a Novel Repetitive Short Linear Motif That Activates Wnt Signaling” (mSphere, 2021).
